Results from patent US20100285583A1, “COMPOUNDS AND METHODS FOR INHIBITING PLATELET AGGREGATION” (priority 2009, published 2010).

Tested on: Thrombin
Assay: Thrombin limited proteolysis
Assay type: biochemical

B1: N-PTB: N-terminal phosphotyrosine binding domain (residues 1-241) of human Disabled-2 (Dab2), expressed as GST-fusion in E. coli (protein)
chain: MSNEVETSATNGQPDQQAAPKAPSKKEKKKGPEKTDEYLLARFKGDGVKYKAKLIGIDDVPDARGDKMSQDSMMKLKGMAARGRSQGQHKQRIWVNISLSGIKIIDEKTGVIEHEHPVNKISFIARDVTDNRAFGYVCGGEGQHQFFAIKTGQQAEPLVVDLKDLFQVIYNVKKKEEEKKKIEEASKAVENGSEALMILDDQTNKLKSGVDQMDLFGDMSTPPDLNSPTESKDILLVDLNS
B1 was tested, and the thrombin cleavage (pre-incubated with PtdIns(4,5)P2 liposomes) was “did not protect the PTB domain from thrombin cleavage”, the thrombin cleavage (pre-incubated with sulfatide-enriched liposomes) was “protected bound N-PTB from thrombin cleavage” and the thrombin cleavage (protein alone) was “cleaved”.
